Values of other authors, collected in patent US11020399B2, “Intermediates useful in the synthesis of compounds as modulators of protein kinases” (Rhizen Pharmaceuticals SA, priority 2011, dated 2021).
At least one compound was matched to its structure with a doubt left.

System: Class I PI3 kinases
Settings: read-out: IC50 against each of the various Class I PI3 kinases; cited from earlier work

## COC[C@H]1OC(=O)c2coc3c2[C@@]1(C)C1=C(C3=O)[C@@H]2CCC(=O)[C@@]2(C)C[C@H]1OC(C)=O [wortmannin]
  IC50: 1 to 10 nM
